No constants are given. Whether binding was seen depends on the method and setting. Some results given as binding are weak or reduced against the parent protein; the word gives no strength.
Biological target: PVRIG (Poliovirus Receptor Related Immunoglobulin Domain Containing Protein) (human) (UniProt Q6DKI7)
Assay: description in Example 2; no assay given

By UniProt entry, the sequences of proteins in these tests, tags left out. Where a name states a change or a piece, a line headed by the entry shows the natural chain unless it says otherwise. Residues count along the entry.
UniProt Q6DKI7, 41-171: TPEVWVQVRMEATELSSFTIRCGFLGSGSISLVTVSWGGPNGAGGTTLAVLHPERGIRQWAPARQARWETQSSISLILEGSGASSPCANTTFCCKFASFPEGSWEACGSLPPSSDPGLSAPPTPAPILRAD

B1: CHA.7.518.1.H4(S241P) (antibody, human IgG4 S228P, kappa, V domains shown)
VH: QVQLVQSGAEVKKPGASVKVSCKASGYTFTDYNINWVRQAPGQGLEWMGYIYPYIGGSGYAQKFQGRVTMTRDTSTSTVYMELSSLRSEDTAVYYCAREDKTARNAMDYWGQGTLVTVSS
VL: DIQMTQSPSSLSASVGDRVTITCRVSENIYSNLAWYQQKPGKAPKLLIYEATNLAEGVPSRFSGSGSGTDFTLTISSLQPEDFATYYCQHFWGTPYTFGQGTKLEIKR
Q: Which binding does the source give for B1 here?
A: binds
